The list shows a part of the results. The main result of the screen is listed elsewhere. These columns were measured beside it and carry no call. Compounds called inactive in the main read-out are mostly missing here. The note in brackets gives the kind of curve behind each potency; many fits are weak.
Experiment: qHTS Assay for Lipid Storage Modulators in Drosophila S3 Cells;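 as to cell number change: cells counted by Cell Tracker Red CMTPX staining in the red channel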
Conditions: BODIPY lipid droplet fluorescence, 18-24 h; for cell number change: measured here: cell count max response, cells fed with added oleic acid
In short: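 Drosophila S3 cells got compounds at several concentrations plus oleic acid (400 uM solution). Laser-scanning cytometry with 488 nm excitation read lipid droplets at 500-530 nm and cells at 575-640 nm. Percent activity was relative to 20 uM Triacsin C.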

[1] = measured here: lipid fluorescence (Fed channel) AC50, cells fed with added oleic acid
[2] = measured here: cell number channel AC50, cells fed with added oleic acid

Structure (SMILES)	AC50 [1]	cell number change [%]	AC50 [2]
O=C1CC(N2CCSCC2)C(=O)N1c1ccccc1 (stereo not given)	0.184 µM [rising, full curve, poor fit]		
O=C(NCc1ccccc1)c1ccc(NS(=O)(=O)c2cccs2)cc1	20.6 µM [falling, single point]	-7.09	
CCn1nc(C(=O)Nc2ccccc2C)c(Cl)c1Cl		22.4	
O=C(COC(=O)c1cncc(Br)c1)Nc1ccc(N2CCCCC2)cc1	0.92 µM [falling, full curve, poor fit]		
O=C(N/N=C/c1cccs1)c1cccc(S(=O)(=O)Nc2ccc(Cl)cc2)c1		-16.6	
CC(=O)c1ccc(NC2OC(CO)C(O)C(O)C2O)cc1 (stereo not given)	29.1 µM [falling, partial curve]		
CC(C)C(=O)OCCN=C1NS(=O)(=O)c2ccccc21	0.731 µM [rising, full curve]	-31.8	0.231 µM [falling, full curve]
CCOC(=O)c1c(C)oc2ccc(OCc3cc(C(=O)OC)oc3C)cc12		71	18.4 µM [rising, single point]
Cc1ccc(C(=O)N(C)CCOc2ccccc2)cc1S(=O)(=O)N1CCOCC1	5.8 µM [rising, single point]	0.268	
O=C(NCc1ccccc1Cl)c1ccc(-c2ccccc2)cc1	29.1 µM [rising, single point]	10.4	
O=C(COc1cccnc1[N+](=O)[O-])N1CCc2ccccc2C1	6.51 µM [rising, partial curve, poor fit]		0.092 µM [rising, full curve]
COC(=O)c1ccc(NC(=O)C2CCCN(S(C)(=O)=O)C2)cc1 (stereo not given)			6.51 µM [rising, single point]
CCN(CC)S(=O)(=O)c1ccc(C(=O)OCC(=O)NC2CCCC2)cc1	0.092 µM [rising, full curve, poor fit]	85.2	1.84 µM [rising, partial curve, poor fit]
Cc1ccc(NC(=O)c2nsc(Cl)c2Cl)cc1	2.91 µM [falling, partial curve]	6.02	4.11 µM [falling, single point]
CCCc1ccc2oc(C(=O)N3CCC(COC)C3)c(C)c2c1 (stereo not given)		-12.9	
Cc1ccc(N2CCN(C(=S)Nc3ccccc3C)CC2)cc1	29.1 µM [rising, single point]	31.4	
CSC1=NSC2=NC(=O)/C(=C/c3coc4ccc(O)cc4c3=O)C(=N)N12		117	29.1 µM [rising, single point]

Taken from above.
Value for Cc1ccc(NC(=O)c2nsc(Cl)c2Cl)cc1 under AC50 [2]: 4.11 µM [falling, single point]
Value for CCN(CC)S(=O)(=O)c1ccc(C(=O)OCC(=O)NC2CCCC2)cc1 under AC50 [1]: 0.092 µM [rising, full curve, poor fit]

— PubChem BioAssay AID2685 (National Center for Advancing Translational Sciences (NCATS), 2010)
